# Reference: the supplement of paper PMC12823440, “Inhibitors supercharge kinase turnover through native proteolytic circuits” (Nature, 2025)
# The chains behind the UniProt entries cited, without tags or fusion partners. Where a name states a change or a piece, a line headed by the entry shows the natural chain unless it says otherwise.
# UniProt P29317, whole entry: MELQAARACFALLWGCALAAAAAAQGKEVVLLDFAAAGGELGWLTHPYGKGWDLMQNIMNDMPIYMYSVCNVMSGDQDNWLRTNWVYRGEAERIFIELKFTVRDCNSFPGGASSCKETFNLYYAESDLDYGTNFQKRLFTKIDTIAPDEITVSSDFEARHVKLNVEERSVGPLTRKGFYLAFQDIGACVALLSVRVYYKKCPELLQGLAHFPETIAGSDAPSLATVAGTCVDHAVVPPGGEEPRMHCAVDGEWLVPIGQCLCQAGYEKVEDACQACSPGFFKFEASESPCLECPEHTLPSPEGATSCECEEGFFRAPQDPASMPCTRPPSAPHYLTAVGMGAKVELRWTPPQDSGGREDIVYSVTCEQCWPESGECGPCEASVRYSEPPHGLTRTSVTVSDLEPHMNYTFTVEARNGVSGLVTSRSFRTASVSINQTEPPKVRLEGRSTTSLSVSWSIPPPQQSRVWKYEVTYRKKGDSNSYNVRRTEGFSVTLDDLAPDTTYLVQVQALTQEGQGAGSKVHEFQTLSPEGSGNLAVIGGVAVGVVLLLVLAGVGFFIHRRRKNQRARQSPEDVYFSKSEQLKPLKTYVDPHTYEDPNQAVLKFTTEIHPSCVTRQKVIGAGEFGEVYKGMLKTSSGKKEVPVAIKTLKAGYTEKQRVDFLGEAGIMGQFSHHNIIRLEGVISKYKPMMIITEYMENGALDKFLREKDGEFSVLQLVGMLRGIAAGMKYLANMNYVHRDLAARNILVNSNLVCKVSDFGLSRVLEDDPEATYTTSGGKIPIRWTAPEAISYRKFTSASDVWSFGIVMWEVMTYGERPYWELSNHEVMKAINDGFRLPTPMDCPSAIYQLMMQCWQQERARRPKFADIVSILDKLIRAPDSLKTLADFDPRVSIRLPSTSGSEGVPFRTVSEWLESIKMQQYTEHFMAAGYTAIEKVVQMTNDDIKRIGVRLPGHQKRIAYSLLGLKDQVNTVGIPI
# UniProt P21860, whole entry: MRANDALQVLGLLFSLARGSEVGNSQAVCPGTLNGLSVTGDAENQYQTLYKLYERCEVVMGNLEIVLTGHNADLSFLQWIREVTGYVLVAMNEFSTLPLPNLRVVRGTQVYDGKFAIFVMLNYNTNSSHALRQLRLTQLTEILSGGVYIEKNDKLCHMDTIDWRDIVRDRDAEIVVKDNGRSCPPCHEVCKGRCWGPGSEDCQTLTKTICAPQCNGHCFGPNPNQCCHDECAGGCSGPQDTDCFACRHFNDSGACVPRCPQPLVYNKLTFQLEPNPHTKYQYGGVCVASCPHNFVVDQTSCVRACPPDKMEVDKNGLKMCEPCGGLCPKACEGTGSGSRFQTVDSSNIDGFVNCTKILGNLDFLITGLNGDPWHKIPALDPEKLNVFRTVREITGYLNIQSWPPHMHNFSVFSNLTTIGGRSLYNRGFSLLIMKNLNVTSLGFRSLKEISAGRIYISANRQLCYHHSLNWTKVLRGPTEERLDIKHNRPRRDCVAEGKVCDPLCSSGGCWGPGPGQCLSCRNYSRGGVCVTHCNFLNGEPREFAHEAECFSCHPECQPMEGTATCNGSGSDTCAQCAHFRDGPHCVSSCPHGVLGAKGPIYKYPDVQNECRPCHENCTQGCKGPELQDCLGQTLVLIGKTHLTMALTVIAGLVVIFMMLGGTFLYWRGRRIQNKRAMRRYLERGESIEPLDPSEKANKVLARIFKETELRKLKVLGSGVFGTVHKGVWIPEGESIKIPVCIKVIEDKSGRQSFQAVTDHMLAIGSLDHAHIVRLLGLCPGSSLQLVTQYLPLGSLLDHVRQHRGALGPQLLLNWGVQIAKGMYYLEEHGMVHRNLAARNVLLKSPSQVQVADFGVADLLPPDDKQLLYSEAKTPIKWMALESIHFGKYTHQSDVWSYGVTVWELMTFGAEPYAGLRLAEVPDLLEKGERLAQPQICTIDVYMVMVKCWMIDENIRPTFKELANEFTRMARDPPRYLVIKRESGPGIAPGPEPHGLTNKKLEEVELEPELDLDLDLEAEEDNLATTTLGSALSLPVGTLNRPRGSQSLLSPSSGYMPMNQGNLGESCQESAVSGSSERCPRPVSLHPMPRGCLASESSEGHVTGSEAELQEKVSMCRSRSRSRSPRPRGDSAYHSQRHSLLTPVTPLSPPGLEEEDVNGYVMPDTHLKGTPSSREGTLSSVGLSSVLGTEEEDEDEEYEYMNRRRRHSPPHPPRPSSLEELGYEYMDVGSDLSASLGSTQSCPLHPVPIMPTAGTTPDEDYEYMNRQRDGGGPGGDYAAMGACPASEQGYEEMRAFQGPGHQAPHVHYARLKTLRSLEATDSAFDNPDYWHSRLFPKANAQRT
# UniProt Q15303, whole entry R711C: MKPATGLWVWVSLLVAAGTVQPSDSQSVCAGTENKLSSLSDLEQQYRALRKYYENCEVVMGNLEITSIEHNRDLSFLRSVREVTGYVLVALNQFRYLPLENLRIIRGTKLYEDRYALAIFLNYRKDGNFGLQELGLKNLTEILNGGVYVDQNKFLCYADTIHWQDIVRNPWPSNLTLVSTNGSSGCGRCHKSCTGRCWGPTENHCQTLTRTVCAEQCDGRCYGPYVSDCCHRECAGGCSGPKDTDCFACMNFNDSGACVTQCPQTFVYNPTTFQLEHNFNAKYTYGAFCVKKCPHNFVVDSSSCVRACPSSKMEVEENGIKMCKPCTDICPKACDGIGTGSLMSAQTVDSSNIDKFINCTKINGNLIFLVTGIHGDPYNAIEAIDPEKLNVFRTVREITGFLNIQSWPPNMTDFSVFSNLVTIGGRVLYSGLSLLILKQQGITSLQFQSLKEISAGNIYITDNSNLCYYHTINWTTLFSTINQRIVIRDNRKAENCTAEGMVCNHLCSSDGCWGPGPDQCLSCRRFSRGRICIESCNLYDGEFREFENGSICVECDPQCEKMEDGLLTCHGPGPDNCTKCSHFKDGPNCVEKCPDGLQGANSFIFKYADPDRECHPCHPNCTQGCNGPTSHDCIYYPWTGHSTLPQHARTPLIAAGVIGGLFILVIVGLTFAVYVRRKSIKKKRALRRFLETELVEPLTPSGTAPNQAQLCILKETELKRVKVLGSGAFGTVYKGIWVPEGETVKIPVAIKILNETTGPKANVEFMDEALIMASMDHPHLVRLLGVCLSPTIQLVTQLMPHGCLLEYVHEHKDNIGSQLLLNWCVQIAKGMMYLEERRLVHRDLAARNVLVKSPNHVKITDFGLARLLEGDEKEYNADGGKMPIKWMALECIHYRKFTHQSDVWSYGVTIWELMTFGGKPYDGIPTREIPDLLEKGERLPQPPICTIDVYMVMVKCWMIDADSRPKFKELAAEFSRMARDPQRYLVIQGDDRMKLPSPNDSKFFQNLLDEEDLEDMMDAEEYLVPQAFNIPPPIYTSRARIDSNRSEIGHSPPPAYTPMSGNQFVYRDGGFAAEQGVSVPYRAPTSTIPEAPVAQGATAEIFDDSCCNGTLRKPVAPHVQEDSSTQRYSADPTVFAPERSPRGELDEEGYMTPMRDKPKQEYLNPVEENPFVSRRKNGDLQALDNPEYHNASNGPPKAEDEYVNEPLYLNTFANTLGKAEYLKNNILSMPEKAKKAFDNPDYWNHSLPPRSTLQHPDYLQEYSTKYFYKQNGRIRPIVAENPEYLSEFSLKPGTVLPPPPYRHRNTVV
# UniProt P11362, whole entry, looked up: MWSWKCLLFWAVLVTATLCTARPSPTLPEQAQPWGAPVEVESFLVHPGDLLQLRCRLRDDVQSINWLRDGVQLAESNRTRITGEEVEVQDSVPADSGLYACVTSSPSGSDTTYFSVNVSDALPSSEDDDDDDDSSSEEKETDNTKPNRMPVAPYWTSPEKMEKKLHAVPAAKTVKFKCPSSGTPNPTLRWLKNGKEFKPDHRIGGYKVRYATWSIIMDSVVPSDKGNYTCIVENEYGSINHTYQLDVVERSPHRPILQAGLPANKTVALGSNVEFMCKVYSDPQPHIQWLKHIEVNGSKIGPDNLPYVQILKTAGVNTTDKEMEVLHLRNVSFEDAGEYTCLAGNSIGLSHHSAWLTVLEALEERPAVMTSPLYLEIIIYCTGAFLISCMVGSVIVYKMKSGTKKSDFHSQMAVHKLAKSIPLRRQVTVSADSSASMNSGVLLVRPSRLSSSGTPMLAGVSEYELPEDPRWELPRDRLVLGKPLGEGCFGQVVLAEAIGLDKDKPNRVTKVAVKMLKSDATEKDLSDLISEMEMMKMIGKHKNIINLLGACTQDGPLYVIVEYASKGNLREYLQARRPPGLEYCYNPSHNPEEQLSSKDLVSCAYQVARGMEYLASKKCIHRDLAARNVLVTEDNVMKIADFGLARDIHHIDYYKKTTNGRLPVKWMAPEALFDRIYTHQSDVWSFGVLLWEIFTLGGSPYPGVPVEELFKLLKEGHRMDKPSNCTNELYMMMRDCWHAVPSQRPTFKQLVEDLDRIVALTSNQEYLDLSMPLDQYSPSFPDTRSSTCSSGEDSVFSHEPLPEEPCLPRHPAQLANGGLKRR
# UniProt P36888, whole entry: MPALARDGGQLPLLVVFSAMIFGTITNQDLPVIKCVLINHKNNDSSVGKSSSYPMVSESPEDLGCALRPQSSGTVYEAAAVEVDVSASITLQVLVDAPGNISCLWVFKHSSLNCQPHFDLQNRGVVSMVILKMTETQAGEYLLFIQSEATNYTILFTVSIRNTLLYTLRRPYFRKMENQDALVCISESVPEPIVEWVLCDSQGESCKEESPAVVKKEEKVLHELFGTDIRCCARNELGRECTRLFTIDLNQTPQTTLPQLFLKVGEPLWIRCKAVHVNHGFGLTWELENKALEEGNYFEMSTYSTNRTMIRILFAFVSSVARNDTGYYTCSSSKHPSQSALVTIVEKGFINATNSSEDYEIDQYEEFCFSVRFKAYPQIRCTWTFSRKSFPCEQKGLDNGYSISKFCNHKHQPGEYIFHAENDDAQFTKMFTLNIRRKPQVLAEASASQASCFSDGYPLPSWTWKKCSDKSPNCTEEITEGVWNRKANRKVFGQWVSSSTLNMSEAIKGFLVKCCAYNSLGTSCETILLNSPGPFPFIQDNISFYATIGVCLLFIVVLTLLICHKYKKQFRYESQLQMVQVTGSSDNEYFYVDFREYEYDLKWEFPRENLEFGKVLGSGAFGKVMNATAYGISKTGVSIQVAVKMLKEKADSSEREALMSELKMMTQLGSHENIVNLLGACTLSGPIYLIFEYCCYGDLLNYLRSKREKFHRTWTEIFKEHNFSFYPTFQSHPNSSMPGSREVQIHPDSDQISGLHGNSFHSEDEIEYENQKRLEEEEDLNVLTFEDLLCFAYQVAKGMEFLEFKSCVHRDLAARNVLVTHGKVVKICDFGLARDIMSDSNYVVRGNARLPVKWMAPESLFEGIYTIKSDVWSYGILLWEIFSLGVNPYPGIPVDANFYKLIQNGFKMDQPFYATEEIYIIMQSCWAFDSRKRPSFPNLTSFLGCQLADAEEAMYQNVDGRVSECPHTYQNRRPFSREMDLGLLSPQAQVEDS
# UniProt P06241, whole entry, looked up: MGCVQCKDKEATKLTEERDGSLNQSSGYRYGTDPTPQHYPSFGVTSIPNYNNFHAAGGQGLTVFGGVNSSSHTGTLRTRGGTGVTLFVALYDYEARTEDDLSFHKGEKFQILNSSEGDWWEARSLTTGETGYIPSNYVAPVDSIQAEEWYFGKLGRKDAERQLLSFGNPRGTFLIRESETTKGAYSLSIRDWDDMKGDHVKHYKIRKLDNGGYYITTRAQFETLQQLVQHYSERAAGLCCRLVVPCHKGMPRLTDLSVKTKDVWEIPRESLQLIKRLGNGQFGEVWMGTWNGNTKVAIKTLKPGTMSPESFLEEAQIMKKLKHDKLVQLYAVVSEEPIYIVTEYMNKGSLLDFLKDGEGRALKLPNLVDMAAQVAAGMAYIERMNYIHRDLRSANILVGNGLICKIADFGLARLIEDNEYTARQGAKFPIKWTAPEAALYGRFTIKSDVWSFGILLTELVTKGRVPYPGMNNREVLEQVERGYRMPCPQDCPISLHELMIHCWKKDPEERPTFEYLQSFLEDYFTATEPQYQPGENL
# UniProt P49840: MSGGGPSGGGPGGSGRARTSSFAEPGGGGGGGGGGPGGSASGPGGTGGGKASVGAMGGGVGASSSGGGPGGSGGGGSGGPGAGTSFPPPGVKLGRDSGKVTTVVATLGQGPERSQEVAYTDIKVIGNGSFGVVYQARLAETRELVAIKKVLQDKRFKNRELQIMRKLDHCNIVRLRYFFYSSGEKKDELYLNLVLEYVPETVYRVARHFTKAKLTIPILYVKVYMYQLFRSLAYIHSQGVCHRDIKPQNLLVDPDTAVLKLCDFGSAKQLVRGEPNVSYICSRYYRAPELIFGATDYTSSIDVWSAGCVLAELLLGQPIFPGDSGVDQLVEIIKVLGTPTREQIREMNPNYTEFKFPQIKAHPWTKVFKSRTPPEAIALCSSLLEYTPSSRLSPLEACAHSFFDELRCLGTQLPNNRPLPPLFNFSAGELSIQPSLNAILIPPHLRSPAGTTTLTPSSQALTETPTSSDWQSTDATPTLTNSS
# Structures can show the parent of a compound that is named as a salt. This is one part of the list. Hit calls seldom repeat between salt and free forms of one compound.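 Kinases, fused to nanoluciferase, were expressed in K562 cells; luminescence was measured every 4 h from 2 to 18 h as percent of control (DMSO = 100%, positive control = 0%). A time point is decreased if signal falls significantly (2 sigma). Hits were called by the authors by a rule that is not shown; the count of time points alone does not decide it.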
# Key:
# Experiment in all cases: kinase-Nluc reporter destabilization hit call (1 = scored as downregulated) (binary); higher = compound decreases kinase abundance
# Conditions in all cases: K562; 2-18 h
# EGFR = EGFR (UniProt P00533)
# EGFR_G719S = EGFR_G719S (UniProt P00533)
# EGFR_G719S_T790M = EGFR_G719S_T790M (UniProt P00533)
# EGFR_L718V = EGFR_L718V (UniProt P00533)
# EGFR_L858R = EGFR_L858R (UniProt P00533)
# EGFR_L861Q = EGFR_L861Q (UniProt P00533)
# EGFR_T790M = EGFR_T790M (UniProt P00533)
# EPHA2 = EPHA2 (UniProt P29317)
# ERBB3 = ERBB3 (UniProt P21860)
# [1] = biological target: ERBB4_R711C (clone: ERBB4_mut) (UniProt Q15303)
# ERN1 = ERN1 (UniProt O75460)
# FGFR1 = FGFR1 (UniProt P11362)
# FGFR2 = FGFR2 (UniProt P21802)
# FGFR3 = FGFR3 (UniProt P22607)
# FGR = FGR (UniProt P09769)
# FLT3 = FLT3 (UniProt P36888)
# FYN = FYN (UniProt P06241)
# GSK3A = GSK3A (UniProt P49840)
# HER2 = HER2 (UniProt P04626)
# INSRR = INSRR (UniProt P14616)
SMILES,kinase-Nluc reporter destabilization hit call (EGFR),kinase-Nluc reporter destabilization hit call (EGFR_G719S),kinase-Nluc reporter destabilization hit call (EGFR_G719S_T790M),kinase-Nluc reporter destabilization hit call (EGFR_L718V),kinase-Nluc reporter destabilization hit call (EGFR_L858R),kinase-Nluc reporter destabilization hit call (EGFR_L861Q),kinase-Nluc reporter destabilization hit call (EGFR_T790M),kinase-Nluc reporter destabilization hit call (EPHA2),kinase-Nluc reporter destabilization hit call (ERBB3),kinase-Nluc reporter destabilization hit call [1],kinase-Nluc reporter destabilization hit call (ERN1),kinase-Nluc reporter destabilization hit call (FGFR1),kinase-Nluc reporter destabilization hit call (FGFR2),kinase-Nluc reporter destabilization hit call (FGFR3),kinase-Nluc reporter destabilization hit call (FGR),kinase-Nluc reporter destabilization hit call (FLT3),kinase-Nluc reporter destabilization hit call (FYN),kinase-Nluc reporter destabilization hit call (GSK3A),kinase-Nluc reporter destabilization hit call (HER2),kinase-Nluc reporter destabilization hit call (INSRR)
C[C@@H](NC(=O)c1ncnc(N)c1Cl)c1ncc(C(=O)Nc2cc(C(F)(F)F)c(Cl)cn2)s1 (2.5 µM),inactive: 0,inactive: 0,inactive: 0,inactive: 0,inactive: 0,inactive: 0,inactive: 0,inactive: 0,inactive: 0,inactive: 0,inactive: 0,inactive: 0,inactive: 0,inactive: 0,inactive: 0,inactive: 0,inactive: 0,inactive: 0,inactive: 0,inactive: 0
COCCNc1cc(NC(=O)N2CCCc3cc(CN4CCOCC4=O)c(C=O)nc32)ncc1C#N (10 µM),inactive: 0,inactive: 0,inactive: 0,inactive: 0,inactive: 0,inactive: 0,inactive: 0,inactive: 0,inactive: 0,inactive: 0,inactive: 0,inactive: 0,inactive: 0,inactive: 0,inactive: 0,inactive: 0,inactive: 0,inactive: 0,inactive: 0,inactive: 0
CNCCOc1ccccc1C1(Nc2nccn(-c3cc(C(=O)NC4CC4)cc(F)c3C)c2=O)CC1 (10 µM),inactive: 0,inactive: 0,inactive: 0,inactive: 0,inactive: 0,inactive: 0,inactive: 0,inactive: 0,inactive: 0,inactive: 0,inactive: 0,inactive: 0,inactive: 0,inactive: 0,inactive: 0,inactive: 0,inactive: 0,inactive: 0,inactive: 0,inactive: 0
C[C@@H]1COC(Nc2ccc3ncnc(Nc4ccc(OCc5nccs5)c(Cl)c4)c3c2)=N1 [Varlitinib] (10 µM),inactive: 0,inactive: 0,inactive: 0,inactive: 0,inactive: 0,inactive: 0,inactive: 0,inactive: 0,inactive: 0,inactive: 0,inactive: 0,inactive: 0,inactive: 0,inactive: 0,inactive: 0,active: 1,inactive: 0,inactive: 0,inactive: 0,inactive: 0
O=C(Nc1ccnc(NC(=O)C2CC2)c1)c1c(Cl)cccc1Cl (10 µM),inactive: 0,inactive: 0,inactive: 0,inactive: 0,inactive: 0,inactive: 0,inactive: 0,inactive: 0,inactive: 0,inactive: 0,inactive: 0,inactive: 0,inactive: 0,inactive: 0,inactive: 0,inactive: 0,inactive: 0,inactive: 0,inactive: 0,inactive: 0
COc1ccc(CN2CCC(c3ccc4nc(C(=O)N5CCN(Cc6ccc(C(F)(F)F)cc6)CC5)[nH]c4c3)CC2)cn1 (2.5 µM),inactive: 0,inactive: 0,inactive: 0,inactive: 0,inactive: 0,inactive: 0,inactive: 0,inactive: 0,inactive: 0,inactive: 0,inactive: 0,inactive: 0,inactive: 0,inactive: 0,inactive: 0,inactive: 0,inactive: 0,inactive: 0,inactive: 0,inactive: 0
O=C1CCC(N2C(=O)c3cccc(OCCCCCOc4ccc(CC(=O)Nc5cc(C6CCC6)[nH]n5)cc4)c3C2=O)C(=O)N1 (stereo not given) [PROTAC CDK9 Degrader-1] (10 µM),inactive: 0,inactive: 0,inactive: 0,inactive: 0,inactive: 0,inactive: 0,inactive: 0,inactive: 0,inactive: 0,inactive: 0,inactive: 0,inactive: 0,inactive: 0,inactive: 0,inactive: 0,inactive: 0,inactive: 0,inactive: 0,inactive: 0,inactive: 0
Cc1cccc(-c2nn3c(c2-c2ccnc4ccc(C(N)=O)cc24)CCC3)n1 [Galunisertib] (10 µM),inactive: 0,inactive: 0,inactive: 0,inactive: 0,inactive: 0,inactive: 0,inactive: 0,inactive: 0,inactive: 0,inactive: 0,inactive: 0,inactive: 0,inactive: 0,inactive: 0,inactive: 0,inactive: 0,inactive: 0,inactive: 0,inactive: 0,inactive: 0
COc1cc2ncnc(Nc3cc(Br)c(O)c(Br)c3)c2cc1OC (2.5 µM),inactive: 0,inactive: 0,inactive: 0,inactive: 0,inactive: 0,inactive: 0,inactive: 0,inactive: 0,inactive: 0,inactive: 0,inactive: 0,inactive: 0,inactive: 0,inactive: 0,inactive: 0,inactive: 0,inactive: 0,inactive: 0,inactive: 0,inactive: 0
CS(=O)(=O)c1ccc([C@@H](CC2CCCC2)C(=O)Nc2nccs2)cc1 (10 µM),inactive: 0,inactive: 0,inactive: 0,inactive: 0,inactive: 0,inactive: 0,inactive: 0,inactive: 0,inactive: 0,inactive: 0,inactive: 0,inactive: 0,inactive: 0,inactive: 0,inactive: 0,inactive: 0,inactive: 0,inactive: 0,inactive: 0,inactive: 0
Cn1cnc2c(F)c(Nc3ccc(Br)cc3F)c(C(=O)NOCCO)cc21 [Binimetinib] (10 µM),inactive: 0,inactive: 0,inactive: 0,inactive: 0,inactive: 0,inactive: 0,inactive: 0,inactive: 0,inactive: 0,inactive: 0,inactive: 0,inactive: 0,inactive: 0,inactive: 0,inactive: 0,inactive: 0,active: 1,inactive: 0,inactive: 0,inactive: 0
COc1ccc(CCNCc2ccc(OCc3ccc(Cl)nc3)c(OC)c2)cc1OC [SBE13 (Hydrochloride)] (10 µM),inactive: 0,inactive: 0,inactive: 0,inactive: 0,inactive: 0,inactive: 0,inactive: 0,inactive: 0,inactive: 0,inactive: 0,inactive: 0,inactive: 0,inactive: 0,inactive: 0,inactive: 0,inactive: 0,inactive: 0,inactive: 0,inactive: 0,inactive: 0
O=C(NCc1ccn[nH]1)c1cc([C@@H]2CCNC[C@H]2COc2ccc3c(c2)OCO3)ccc1F [GRK2-IN-1 (hydrochloride)] (10 µM),inactive: 0,inactive: 0,inactive: 0,inactive: 0,inactive: 0,inactive: 0,inactive: 0,inactive: 0,inactive: 0,inactive: 0,inactive: 0,inactive: 0,inactive: 0,inactive: 0,inactive: 0,inactive: 0,inactive: 0,inactive: 0,inactive: 0,inactive: 0
Cc1cnc(Nc2ccc(F)cc2Cl)nc1-c1c[nH]c(C(=O)N[C@H](CO)c2cccc(Cl)c2)c1 (10 µM),inactive: 0,inactive: 0,inactive: 0,inactive: 0,inactive: 0,inactive: 0,inactive: 0,inactive: 0,inactive: 0,inactive: 0,inactive: 0,inactive: 0,inactive: 0,inactive: 0,inactive: 0,inactive: 0,inactive: 0,inactive: 0,inactive: 0,inactive: 0
Cc1nc(NC(=O)N2CCC[C@H]2C(N)=O)sc1-c1ccnc(C(C)(C)C(F)(F)F)c1 [Alpelisib] (2.5 µM),inactive: 0,inactive: 0,inactive: 0,inactive: 0,inactive: 0,inactive: 0,inactive: 0,inactive: 0,inactive: 0,inactive: 0,inactive: 0,inactive: 0,inactive: 0,inactive: 0,inactive: 0,inactive: 0,inactive: 0,inactive: 0,inactive: 0,inactive: 0
O=C1Cc2ccccc2N1 [Oxindole] (10 µM),inactive: 0,inactive: 0,inactive: 0,inactive: 0,inactive: 0,inactive: 0,inactive: 0,inactive: 0,inactive: 0,inactive: 0,inactive: 0,inactive: 0,inactive: 0,inactive: 0,inactive: 0,inactive: 0,inactive: 0,inactive: 0,inactive: 0,inactive: 0
CCn1c(N)c(C(=O)NC)c(=O)c2ccc(C#CC(C)(O)COC)nc21 (stereo not given) (10 µM),inactive: 0,inactive: 0,inactive: 0,inactive: 0,inactive: 0,inactive: 0,inactive: 0,inactive: 0,inactive: 0,inactive: 0,inactive: 0,inactive: 0,inactive: 0,inactive: 0,inactive: 0,inactive: 0,inactive: 0,inactive: 0,inactive: 0,inactive: 0
O=C(O)/C=C(\CCc1ccc(Cl)cc1)c1ccccc1 (10 µM),inactive: 0,inactive: 0,inactive: 0,inactive: 0,inactive: 0,inactive: 0,inactive: 0,inactive: 0,inactive: 0,inactive: 0,inactive: 0,inactive: 0,inactive: 0,inactive: 0,inactive: 0,inactive: 0,inactive: 0,inactive: 0,inactive: 0,inactive: 0

# As entered above.
# kinase-Nluc reporter destabilization hit call (EGFR), COc1ccc(CN2CCC(c3ccc4nc(C(=O)N5CCN(Cc6ccc(C(F)(F)F)cc6)CC5)[nH]c4c3)CC2)cn1 (2.5 µM) reads inactive: 0
# kinase-Nluc reporter destabilization hit call (FGR), CNCCOc1ccccc1C1(Nc2nccn(-c3cc(C(=O)NC4CC4)cc(F)c3C)c2=O)CC1 (10 µM) reads inactive: 0
